Measured values from the supplement of paper PMC12889115.
This is one part of the list. These are raw signals, not scaled to a control.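 First-pass screen: polymyxin B was added at a level that permeabilizes the Salmonella outer membrane while sparing the inner membrane. DMSO wells, with and without polymyxin B, defined maximum growth. Because plates differed from one another, each plate's data were ranked separately and the compounds with the lowest OD600 were carried forward as hits.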

Tested on: Salmonella enterica serovar Typhimurium SL1344
Assay: bacterial growth OD600 after 18 h with compound and polymyxin B; higher = more bacterial growth (less inhibition)
Conditions: 50 µM, Mueller-Hinton broth

Row | SMILES | bacterial growth OD600 (polymyxin B 1 µg/mL) | bacterial growth OD600 (polymyxin B 0.75 µg/mL)
1 | COCc1ccc(C(=O)N(C)CC2CCN(CCc3ccc(Cl)cc3)CC2)o1 | 0.967 | –
2 | CN(CC1CCCN(CCc2ccccc2F)C1)C(=O)c1cccs1 (stereo unspecified) | 0.958 | –
3 | O=C(NCc1cn2ccccc2n1)C1CCC(=O)N(CCN2CCOCC2)C1 (stereo unspecified) | 1.15 | –
4 | CCOC(=O)C1CCCN(C(=O)c2cc(COc3cccc(C(C)=O)c3)[nH]n2)C1 (stereo unspecified) | 0.917 | –
5 | Cc1nonc1CC(=O)NC1CC(=O)N(Cc2cccc3ccccc23)C1 (stereo unspecified) | 0.949 | –
6 | CC(C)CC(=O)Nc1ccnn1C1CCN(Cc2cc(O)c3ccccc3n2)CC1 | – | 0.845
7 | CO[C@H]1[C@H](NC(=O)Cc2ccccc2)c2ccccc2C12CCN(C(=O)c1cc(C)ccc1C)CC2 | – | 0.692
8 | COCCC(=O)N1CCC(n2nccc2NC(=O)c2ccccc2OC)CC1 | 1.06 | –
9 | O=C(NCc1ccncn1)c1csc2nc(-c3cccc(C(F)(F)F)c3)cn12 | 0.862 | –
10 | O=C(Cc1cccnc1)NC1CC(=O)N(Cc2cccc3ccccc23)C1 (stereo unspecified) | 0.948 | –
11 | CN(C)CCC1CN(C(=O)c2ccc(C(F)(F)F)cc2)CCO1 (stereo unspecified) | – | 0.822
12 | CC(C)CCn1c(CN(C)CCc2ccccn2)cnc1S(=O)(=O)C(C)C | 1.06 | –
13 | Fc1ccc(Oc2ncccc2CNC2CCSCC2)c(F)c1 | 0.846 | –
14 | COCc1nc2cc(NC(=O)Cc3ccccc3)cc(C(=O)NCC3OCCc4ccccc43)c2n1C (stereo unspecified) | – | 0.781
15 | COCCN1CCN(C(=O)CC2(c3ccccc3C)CC(=O)N(Cc3cccnc3)C2=O)CC1 (stereo unspecified) | – | 0.806
16 | CCN(CC1CCCN(CCc2cccc(OC)c2)C1)C(=O)c1ccnn1C (stereo unspecified) | 0.79 | –
17 | CCC1CCCCN1C(=O)c1cc(COc2ccc3ncccc3c2)on1 (stereo unspecified) | – | 0.519
18 | Cc1nc(N2CCCC2C(=O)N[C@@H](C)c2ccccc2)nc2ccccc12 (stereo partly specified) | – | 0.007
19 | Cc1ccc(OCc2cc(C(=O)N(C)Cc3nc4ccccc4[nH]3)no2)cn1 | 0.911 | –
20 | COc1ccc(CN2C[C@@H]3C[C@@H](c4ccccc4OC)N4CCC[C@@]34C2=O)cc1 | – | 0.761
21 | Cc1nc(N2CCCC(C(=O)NCC(C)(C)CO)C2)nc2cc(S(C)(=O)=O)ccc12 (stereo unspecified) | – | 0.815

Reformatted in markdown: part of the list above

| Row | SMILES | bacterial growth OD600 (polymyxin B 1 µg/mL) | bacterial growth OD600 (polymyxin B 0.75 µg/mL) |
| --- | --- | --- | --- |
| 13 | Fc1ccc(Oc2ncccc2CNC2CCSCC2)c(F)c1 | 0.846 | – |
| 20 | COc1ccc(CN2C[C@@H]3C[C@@H](c4ccccc4OC)N4CCC[C@@]34C2=O)cc1 | – | 0.761 |
